Measurements reported in patent US20230027739A1, “ANTIGEN-BINDING AND ANTIGEN D[…]” (Entrada Therapeutics, Inc., priority 2021, published 2023).
Results are given in words; binding and its absence hold for the method and conditions named. Some results given as binding are weak or reduced against the parent protein; the word gives no strength.

Chains of the proteins cited; added tags and fusions are not shown. Lines headed by an entry give the natural chain unless they say otherwise; changes in a name come on top.
UniProt P35222: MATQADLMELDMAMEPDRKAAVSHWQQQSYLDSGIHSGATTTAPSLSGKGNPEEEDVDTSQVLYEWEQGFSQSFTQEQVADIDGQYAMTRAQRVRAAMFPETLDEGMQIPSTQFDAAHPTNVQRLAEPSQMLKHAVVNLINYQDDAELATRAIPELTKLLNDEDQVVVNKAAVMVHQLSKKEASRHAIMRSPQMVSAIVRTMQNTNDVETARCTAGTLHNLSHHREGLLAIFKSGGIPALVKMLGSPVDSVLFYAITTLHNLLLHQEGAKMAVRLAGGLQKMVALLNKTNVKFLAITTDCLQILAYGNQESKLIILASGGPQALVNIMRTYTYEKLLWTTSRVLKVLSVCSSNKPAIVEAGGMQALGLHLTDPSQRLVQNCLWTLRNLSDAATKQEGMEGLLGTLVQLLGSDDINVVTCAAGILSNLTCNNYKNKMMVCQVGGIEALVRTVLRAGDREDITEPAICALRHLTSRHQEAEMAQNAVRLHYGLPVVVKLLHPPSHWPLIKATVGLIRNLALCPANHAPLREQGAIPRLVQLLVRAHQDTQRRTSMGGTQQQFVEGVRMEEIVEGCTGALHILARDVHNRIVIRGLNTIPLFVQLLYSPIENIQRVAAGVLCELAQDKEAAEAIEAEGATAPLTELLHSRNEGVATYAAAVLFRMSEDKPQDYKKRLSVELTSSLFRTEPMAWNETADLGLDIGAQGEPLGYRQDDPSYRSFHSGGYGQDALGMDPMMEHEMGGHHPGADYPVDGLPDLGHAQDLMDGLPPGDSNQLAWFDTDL

B1: BC13 (VHH)
VHH: QVQLVETGGGLVAPGGSLTLSCVASGSIFSIYSMGWYRQAPGKERELVADTTAGNTPHYGESVRGRFTISSISRDSAKNTVYLQMSDLKPDDTAVYYCAMGISHNWYAPSIYWGRGTQVTVSS
B2: BC6 (VHH)
VHH: QVQRQESGGGLVQPGGSLRLSCAASGDIFRVNDMAWYRQAPGKQRELVATITRGGGVAYADSVKGRFTISRDNSKNTVALQMNSLKPDDTAVYYCNADVQVGRNYEYNYWGQGTQVTVSS
B3: BC11 (VHH)
VHH: QVQLVETGGGLVQPGGSLRLSCVASGFKFDAYAMSWARQAPGKWLEWVSDISWNGVSEYYAESMKGRFTISRDNAKNTVYLQMSSLKPEDTAVYYCAKQARPQEVGVPTFQVTGYGMDYWGKGALVTASS
B4: BC3 (VHH)
VHH: EVQLVQPGGSLRLSCAVSGSISNFNAMGWYRQAPGKQRELVATITRGGSTDYAASVKGRFTISRDSAANTVYLQMNSLKPEDTAVYYCNAQRSPLILTTSRTHNYWGQGTQVTVSS
B5: BC14 (VHH)
VHH: GGALAQPGGSLTLSCAVSGFTFDYDAAELRDYVLGWIRQVPGKEPEGVSCSSRDGTAYYSDSVKGRFTIYRDNQKNTVYLQMNSLKPDDTAVYYCAAHDLIVYYNDFPLCSTYDYDYWGQGIQVTVSS
B6: BC12 (VHH)
VHH: EVQVQESGGGLVQPGGSLRLSCAASGSFYSIVAMGWYRQAPGQQRELVATVTSGGSGGSVTNYADSVKGRFTISRDNAKNTVDLQMNSLKPDDTAVYSCWARVRVTPERFFSYWDRGTQVTVAS

The binders below were run against β-catenin protein (purified antigen of Example 5) (Homo sapiens (Human)) (UniProt P35222) (assay: monoclonal phage ELISA on coated β-catenin (1 µg/ml), anti-M13-HRP, OD450; >0.5 counted as positive).

binding, binds:
B1
B2
B3
B4
B5
B6
